Reference: publication PMC10599630
No constants are given. Whether binding was seen depends on the method and setting. For some assays here: Binding seen in cells or lysates may run through a third protein. Some binding calls cover weakened binding; strength is not graded here. For some assays here: Sequences can lack the tags named with a protein.

Amino acid sequences for entries named in this document (tags omitted). A change or cut given only in a name is not applied to a line headed by its entry. Chains listed by the source or under a name are the forms on record and can include a tag or linker. Residues count along the entry.
IL-12α (no tag named, Fig. 2E) (P29459, residues 23-219): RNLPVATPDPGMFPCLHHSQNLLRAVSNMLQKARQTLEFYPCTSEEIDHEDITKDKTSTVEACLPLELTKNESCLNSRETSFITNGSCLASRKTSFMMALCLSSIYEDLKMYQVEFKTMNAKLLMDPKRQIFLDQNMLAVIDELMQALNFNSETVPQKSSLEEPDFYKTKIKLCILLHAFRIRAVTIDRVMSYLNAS
IL-12α^C96S (P29459, form named): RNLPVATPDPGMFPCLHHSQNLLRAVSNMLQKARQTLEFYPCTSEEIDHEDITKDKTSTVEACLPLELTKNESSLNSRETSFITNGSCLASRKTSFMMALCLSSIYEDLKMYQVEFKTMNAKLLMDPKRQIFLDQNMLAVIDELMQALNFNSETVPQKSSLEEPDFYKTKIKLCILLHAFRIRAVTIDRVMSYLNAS

Assays:
IL-12α^C96S (human) = IL-12α^C96S (human) (UniProt P29459); assay: AUC; sedimentation velocity, 10 μM of each protein alone or the equimolar incubated proteins in PBS pH 7.4, 42,000 rpm, 20°C, absorbance at 235 nm, c(s) analysis; both purified
EBI3-HA (human) = target: T1, EBI3-HA (human) (UniProt Q14213); assay: co-IP; cell medium of HEK293T cells co-expressing both subunits, precleared with Protein A/G agarose; anti-FLAG M2 or anti-HA magnetic beads, 2 hours at 4°C; washes with 400 mM NaCl, 0.5% NP-40, 0.5% DOC; in Fig. 2E two consecutive HA-IPs
T1 sequence: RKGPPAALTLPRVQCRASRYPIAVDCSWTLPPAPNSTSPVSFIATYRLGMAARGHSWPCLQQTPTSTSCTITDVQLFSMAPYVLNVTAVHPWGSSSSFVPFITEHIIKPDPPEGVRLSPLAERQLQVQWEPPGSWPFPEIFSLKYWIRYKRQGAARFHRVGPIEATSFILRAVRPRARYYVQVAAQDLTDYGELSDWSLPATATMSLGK

binding (IL-12α^C96S (human)) | binding (EBI3-HA (human)) | Substance
no binding (tested: 10 μM) | – | IL-12α^C96S (from UniProt P29459 23-219)
– | binds weakly | IL-12α (no tag named, Fig. 2E) (from UniProt P29459 23-219)
